# Source: the supplement of paper PMC8728848
# Some of the results follow.
# What was measured:
# Test in all cases: glycan array binding signal (z-score within array); higher = stronger binding
# Conditions in all cases: glycan notation: IUPAC condensed, linker removed
# Glc(b1-4)Glc = biological target: Glc(b1-4)Glc
# Summary of the method: (§1)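 Columns mapping to the same glycan were averaged after glycan names were converted to IUPAC-condensed notation. The data come from 3228 arrays in the Consortium for Functional Glycomics database, limited to those with an available protein sequence. Binding is reported as a within-array Z-score averaged across arrays of one protein sequence and across linkers.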
# Glc(b1-6)Glc = biological target: Glc(b1-6)Glc
# Summary of the method: as §1
# GlcA(b1-3)Gal = biological target: GlcA(b1-3)Gal
# Summary of the method: as §1
# GlcA(b1-3)GlcNAc = biological target: GlcA(b1-3)GlcNAc
# Summary of the method: as §1
# GlcA(b1-6)Gal = biological target: GlcA(b1-6)Gal
# Summary of the method: as §1
# [1] = biological target: GlcA3S(b1-3)Gal(b1-4)GlcNAc(b1-2)Man
# Summary of the method: as §1
# [2] = biological target: GlcA3S(b1-3)Gal(b1-4)GlcNAc(b1-3)Gal(b1-4)Glc
# Summary of the method: as §1
# [3] = biological target: GlcNAc(a1-3)Gal(b1-4)GlcNAc
# Summary of the method: as §1
# [4] = biological target: GlcNAc(a1-4)Gal(b1-3)GlcNAc
# Summary of the method: as §1
# [5] = biological target: GlcNAc(a1-4)Gal(b1-4)GalNAc
# Summary of the method: as §1
# [6] = biological target: GlcNAc(a1-4)Gal(b1-4)GlcNAc
# Summary of the method: as §1
# [7] = biological target: GlcNAc(a1-4)Gal(b1-4)GlcNAc(b1-3)Gal(b1-4)Glc
# Summary of the method: as §1
# [8] = biological target: GlcNAc(a1-4)Gal(b1-4)GlcNAc(b1-3)Gal(b1-4)GlcNAc
# Summary of the method: as §1
# [9] = biological target: GlcNAc(a1-4)Gal(b1-4)GlcNAc(b1-3)Gal(b1-4)GlcNAc(b1-3)Gal(b1-4)GlcNAc
# Summary of the method: as §1
# [10] = biological target: GlcNAc(a1-4)Gal(b1-4)GlcNAc(b1-3)Gal(b1-4)[Fuc(a1-3)]GlcNAc(b1-3)Gal(b1-4)[Fuc(a1-3)]GlcNAc
# Summary of the method: as §1
# [11] = biological target: GlcNAc(a1-6)Gal(b1-4)GlcNAc
# Summary of the method: as §1
# [12] = biological target: GlcNAc(b1-2)Gal(b1-3)GalNAc
# Summary of the method: as §1
# [13] = biological target: GlcNAc(b1-2)Man(a1-3)[GlcNAc(b1-2)Man(a1-6)]Man(b1-4)GlcNAc(b1-4)GlcNAc
# Summary of the method: as §1
# [14] = biological target: GlcNAc(b1-2)Man(a1-3)[GlcNAc(b1-2)Man(a1-6)]Man(b1-4)GlcNAc(b1-4)[Fuc(a1-6)]GlcNAc
# Summary of the method: as §1
# [15] = biological target: GlcNAc(b1-2)Man(a1-3)[GlcNAc(b1-4)][GlcNAc(b1-2)Man(a1-6)]Man(b1-4)GlcNAc(b1-4)GlcNAc
# Summary of the method: as §1
# [16] = biological target: GlcNAc(b1-2)Man(a1-3)[GlcNAc(b1-4)][GlcNAc(b1-2)Man(a1-6)]Man(b1-4)GlcNAc(b1-4)[Fuc(a1-6)]GlcNAc
# Summary of the method: as §1
# [17] = biological target: GlcNAc(b1-2)[GlcNAc(b1-4)]Man(a1-3)[GlcNAc(b1-2)Man(a1-6)]Man(b1-4)GlcNAc(b1-4)GlcNAc
# Summary of the method: as §1
# [18] = biological target: GlcNAc(b1-2)[GlcNAc(b1-4)]Man(a1-3)[GlcNAc(b1-4)][GlcNAc(b1-2)Man(a1-6)]Man(b1-4)GlcNAc(b1-4)GlcNAc
# Summary of the method: as §1
# [19] = biological target: GlcNAc(b1-2)[GlcNAc(b1-4)]Man(a1-3)[GlcNAc(b1-4)][GlcNAc(b1-2)[GlcNAc(b1-6)]Man(a1-6)]Man(b1-4)GlcNAc(b1-4)GlcNAc
# Summary of the method: as §1
# [20] = biological target: GlcNAc(b1-2)[GlcNAc(b1-4)]Man(a1-3)[GlcNAc(b1-4)][GlcNAc(b1-2)[GlcNAc(b1-6)]Man(a1-6)]Man(b1-4)GlcNAc(b1-4)[Fuc(a1-6)]GlcNAc
# Summary of the method: as §1
# [21] = biological target: GlcNAc(b1-2)[GlcNAc(b1-6)]Man(a1-6)[GlcNAc(b1-2)Man(a1-3)]Man(b1-4)GlcNAc(b1-4)GlcNAc
# Summary of the method: as §1
# [22] = biological target: GlcNAc(b1-2)[GlcNAc(b1-6)]Man(a1-6)[GlcNAc(b1-2)Man(a1-3)]Man(b1-4)GlcNAc(b1-4)[Fuc(a1-6)]GlcNAc
# Summary of the method: as §1
# [23] = biological target: GlcNAc(b1-2)[GlcNAc(b1-6)]Man(a1-6)[GlcNAc(b1-4)][GlcNAc(b1-2)Man(a1-3)]Man(b1-4)GlcNAc(b1-4)GlcNAc
# Summary of the method: as §1
# GlcNAc(b1-3)Fuc = biological target: GlcNAc(b1-3)Fuc
# Summary of the method: as §1
# GlcNAc(b1-3)Gal = biological target: GlcNAc(b1-3)Gal
# Summary of the method: as §1
# [24] = biological target: GlcNAc(b1-3)Gal(b1-3)GalNAc
# Summary of the method: as §1
# GlcNAc(b1-3)Gal(b1-4)Glc = biological target: GlcNAc(b1-3)Gal(b1-4)Glc
# Summary of the method: as §1
# [25] = biological target: GlcNAc(b1-3)Gal(b1-4)GlcNAc
# Summary of the method: as §1
# [26] = biological target: GlcNAc(b1-3)Gal(b1-4)GlcNAc(b1-2)Man(a1-3)[GlcNAc(b1-3)Gal(b1-4)GlcNAc(b1-2)Man(a1-6)]Man(b1-4)GlcNAc(b1-4)GlcNAc
# Summary of the method: as §1
# [27] = biological target: GlcNAc(b1-3)Gal(b1-4)GlcNAc(b1-2)Man(a1-3)[GlcNAc(b1-3)Gal(b1-4)GlcNAc(b1-2)Man(a1-6)]Man(b1-4)GlcNAc(b1-4)[Fuc(a1-6)]GlcNAc
# Summary of the method: as §1
# [28] = biological target: GlcNAc(b1-3)Gal(b1-4)GlcNAc(b1-2)[GlcNAc(b1-3)Gal(b1-4)GlcNAc(b1-6)]Man(a1-6)[GlcNAc(b1-3)Gal(b1-4)GlcNAc(b1-2)Man(a1-3)]Man(b1-4)GlcNAc(b1-4)GlcNAc
# Summary of the method: as §1
# [29] = biological target: GlcNAc(b1-3)Gal(b1-4)GlcNAc(b1-3)Gal(b1-4)GlcNAc
# Summary of the method: as §1
# [30] = biological target: GlcNAc(b1-3)Gal(b1-4)GlcNAc(b1-3)Gal(b1-4)GlcNAc(b1-2)Man(a1-3)[GlcNAc(b1-3)Gal(b1-4)GlcNAc(b1-3)Gal(b1-4)GlcNAc(b1-2)Man(a1-6)]Man(b1-4)GlcNAc(b1-4)GlcNAc
# Summary of the method: as §1
# [31] = biological target: GlcNAc(b1-3)Gal(b1-4)GlcNAc(b1-3)Gal(b1-4)GlcNAc(b1-2)Man(a1-3)[GlcNAc(b1-3)Gal(b1-4)GlcNAc(b1-3)Gal(b1-4)GlcNAc(b1-2)Man(a1-6)]Man(b1-4)GlcNAc(b1-4)[Fuc(a1-6)]GlcNAc
# Summary of the method: as §1
# [32] = biological target: GlcNAc(b1-3)Gal(b1-4)GlcNAc(b1-3)Gal(b1-4)GlcNAc(b1-2)[GlcNAc(b1-3)Gal(b1-4)GlcNAc(b1-3)Gal(b1-4)GlcNAc(b1-6)]Man(a1-6)[GlcNAc(b1-3)Gal(b1-4)GlcNAc(b1-3)Gal(b1-4)GlcNAc(b1-2)Man(a1-3)]Man(b1-4)GlcNAc(b1-4)[Fuc(a1-6)]GlcNAc
# Summary of the method: as §1
# [33] = biological target: GlcNAc(b1-3)Gal(b1-4)GlcNAc(b1-3)Gal(b1-4)GlcNAc(b1-3)Gal(b1-4)GlcNAc(b1-2)Man(a1-3)[GlcNAc(b1-3)Gal(b1-4)GlcNAc(b1-3)Gal(b1-4)GlcNAc(b1-3)Gal(b1-4)GlcNAc(b1-2)Man(a1-6)]Man(b1-4)GlcNAc(b1-4)GlcNAc
# Summary of the method: as §1
# [34] = biological target: GlcNAc(b1-3)Gal(b1-4)GlcNAc(b1-3)Gal(b1-4)GlcNAc(b1-3)Gal(b1-4)GlcNAc(b1-2)Man(a1-3)[GlcNAc(b1-3)Gal(b1-4)GlcNAc(b1-3)Gal(b1-4)GlcNAc(b1-3)Gal(b1-4)GlcNAc(b1-2)Man(a1-6)]Man(b1-4)GlcNAc(b1-4)[Fuc(a1-6)]GlcNAc
# Summary of the method: as §1
# [35] = biological target: GlcNAc(b1-3)Gal(b1-4)GlcNAc(b1-3)Gal(b1-4)GlcNAc(b1-3)Gal(b1-4)GlcNAc(b1-2)[GlcNAc(b1-3)Gal(b1-4)GlcNAc(b1-3)Gal(b1-4)GlcNAc(b1-3)Gal(b1-4)GlcNAc(b1-6)]Man(a1-6)[GlcNAc(b1-3)Gal(b1-4)GlcNAc(b1-3)Gal(b1-4)GlcNAc(b1-3)Gal(b1-4)GlcNAc(b1-2)Man(a1-3)]Man(b1-4)GlcNAc(b1-4)[Fuc(a1-6)]GlcNAc
# Summary of the method: as §1
# [36] = biological target: GlcNAc(b1-3)Gal(b1-4)GlcNAc(b1-3)Gal(b1-4)GlcNAc(b1-3)Gal(b1-4)GlcNAc(b1-3)Gal(b1-4)GlcNAc(b1-2)Man(a1-3)[GlcNAc(b1-3)Gal(b1-4)GlcNAc(b1-3)Gal(b1-4)GlcNAc(b1-3)Gal(b1-4)GlcNAc(b1-3)Gal(b1-4)GlcNAc(b1-2)Man(a1-6)]Man(b1-4)GlcNAc(b1-4)GlcNAc
# Summary of the method: as §1
# [37] = biological target: GlcNAc(b1-3)Gal(b1-4)GlcNAc(b1-3)Gal(b1-4)GlcNAc(b1-3)Gal(b1-4)GlcNAc(b1-3)Gal(b1-4)GlcNAc(b1-2)Man(a1-3)[GlcNAc(b1-3)Gal(b1-4)GlcNAc(b1-3)Gal(b1-4)GlcNAc(b1-3)Gal(b1-4)GlcNAc(b1-3)Gal(b1-4)GlcNAc(b1-2)Man(a1-6)]Man(b1-4)GlcNAc(b1-4)[Fuc(a1-6)]GlcNAc
# Summary of the method: as §1
binder,measurement,setting,value
Epa19 (Candida glabrata) (protein) MGSSHHHHHHSSGLVPRGSHMASSKDPTRFPIGCSPQVLKTQPGLAVKLYSYGHPVPGCSYITYQYPDFPRSGYKKERKLADITGVNGKIDIDLKPNDPCRVLTGHLPSNYNYPDTLTYTNFTMILYGYFQPKVTGYHTFNLEADDLLFMNLGAGNAFDCCKAESTLDNFGNYQSYSLWGSDYAKANITVFLVSGVYYPIRLFYVNRDNNAVIDFSFTTEFDKEKVHDFTSYFFSASDGEQCPGSV,glycan array binding signal (z-score),Glc(b1-4)Glc,-1.04
same,glycan array binding signal (z-score),Glc(b1-6)Glc,-0.409
same,glycan array binding signal (z-score),GlcA(b1-3)Gal,1.5
same,glycan array binding signal (z-score),GlcA(b1-3)GlcNAc,-0.2
same,glycan array binding signal (z-score),GlcA(b1-6)Gal,-0.286
same,glycan array binding signal (z-score),[1],1.28
same,glycan array binding signal (z-score),[2],-0.378
same,glycan array binding signal (z-score),[3],-0.501
same,glycan array binding signal (z-score),[4],-0.113
same,glycan array binding signal (z-score),[5],-0.434
same,glycan array binding signal (z-score),[6],0.311
same,glycan array binding signal (z-score),[7],0.565
same,glycan array binding signal (z-score),[8],0.576
same,glycan array binding signal (z-score),[9],-0.551
same,glycan array binding signal (z-score),[10],0.046
same,glycan array binding signal (z-score),[11],-0.568
same,glycan array binding signal (z-score),[12],-0.4
same,glycan array binding signal (z-score),[13],-0.104
same,glycan array binding signal (z-score),[14],-0.259
same,glycan array binding signal (z-score),[15],0.2
same,glycan array binding signal (z-score),[16],-0.242
same,glycan array binding signal (z-score),[17],-0.408
same,glycan array binding signal (z-score),[18],-0.548
same,glycan array binding signal (z-score),[19],-0.443
same,glycan array binding signal (z-score),[20],0.566
same,glycan array binding signal (z-score),[21],-0.103
same,glycan array binding signal (z-score),[22],-0.413
same,glycan array binding signal (z-score),[23],-1.05
same,glycan array binding signal (z-score),GlcNAc(b1-3)Fuc,-0.043
same,glycan array binding signal (z-score),GlcNAc(b1-3)Gal,-1.24
same,glycan array binding signal (z-score),[24],-0.152
same,glycan array binding signal (z-score),GlcNAc(b1-3)Gal(b1-4)Glc,-0.077
same,glycan array binding signal (z-score),[25],-0.29
same,glycan array binding signal (z-score),[26],-0.192
same,glycan array binding signal (z-score),[27],-0.291
same,glycan array binding signal (z-score),[28],-0.051
same,glycan array binding signal (z-score),[29],-0.681
same,glycan array binding signal (z-score),[30],0.941
same,glycan array binding signal (z-score),[31],0.598
same,glycan array binding signal (z-score),[32],3.06
same,glycan array binding signal (z-score),[33],0.398
same,glycan array binding signal (z-score),[34],1.33
same,glycan array binding signal (z-score),[35],2.24
same,glycan array binding signal (z-score),[36],0.357
same,glycan array binding signal (z-score),[37],0.417
